Data: the supplement of paper PMC7666118
Some of the results follow.

By UniProt entry, the sequences of proteins in these tests, tags left out. Where a name states a change or a piece, a line headed by the entry shows the natural chain unless it says otherwise.
UniProt Q9BTF0: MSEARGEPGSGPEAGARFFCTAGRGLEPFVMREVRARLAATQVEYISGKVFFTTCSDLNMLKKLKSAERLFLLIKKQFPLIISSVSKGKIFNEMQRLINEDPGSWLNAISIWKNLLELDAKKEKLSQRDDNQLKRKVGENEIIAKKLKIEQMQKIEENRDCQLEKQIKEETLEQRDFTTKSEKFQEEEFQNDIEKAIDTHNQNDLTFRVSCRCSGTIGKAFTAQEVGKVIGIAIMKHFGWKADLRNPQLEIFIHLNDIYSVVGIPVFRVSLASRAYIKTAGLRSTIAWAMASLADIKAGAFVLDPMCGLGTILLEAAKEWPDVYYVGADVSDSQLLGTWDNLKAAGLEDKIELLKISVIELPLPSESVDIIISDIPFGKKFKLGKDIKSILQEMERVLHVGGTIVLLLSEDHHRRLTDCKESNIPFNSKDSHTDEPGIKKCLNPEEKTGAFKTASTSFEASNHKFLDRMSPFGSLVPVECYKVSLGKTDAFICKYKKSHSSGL
UniProt P29401: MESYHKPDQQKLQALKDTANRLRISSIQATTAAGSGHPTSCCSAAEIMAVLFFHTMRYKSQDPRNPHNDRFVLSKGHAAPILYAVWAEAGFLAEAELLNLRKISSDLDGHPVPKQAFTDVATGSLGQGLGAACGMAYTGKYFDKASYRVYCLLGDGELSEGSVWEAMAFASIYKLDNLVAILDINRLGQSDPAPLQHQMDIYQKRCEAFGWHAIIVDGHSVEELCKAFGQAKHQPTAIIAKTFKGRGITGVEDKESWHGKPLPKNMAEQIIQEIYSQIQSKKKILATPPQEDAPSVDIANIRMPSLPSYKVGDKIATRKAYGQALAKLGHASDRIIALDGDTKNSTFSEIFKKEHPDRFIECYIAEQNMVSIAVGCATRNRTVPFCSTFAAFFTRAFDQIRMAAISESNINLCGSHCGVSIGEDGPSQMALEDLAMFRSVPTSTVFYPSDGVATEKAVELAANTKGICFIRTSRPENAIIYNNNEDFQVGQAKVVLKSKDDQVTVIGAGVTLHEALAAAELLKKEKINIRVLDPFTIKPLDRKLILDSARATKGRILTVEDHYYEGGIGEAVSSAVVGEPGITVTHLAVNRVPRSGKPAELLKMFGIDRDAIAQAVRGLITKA
UniProt Q99805: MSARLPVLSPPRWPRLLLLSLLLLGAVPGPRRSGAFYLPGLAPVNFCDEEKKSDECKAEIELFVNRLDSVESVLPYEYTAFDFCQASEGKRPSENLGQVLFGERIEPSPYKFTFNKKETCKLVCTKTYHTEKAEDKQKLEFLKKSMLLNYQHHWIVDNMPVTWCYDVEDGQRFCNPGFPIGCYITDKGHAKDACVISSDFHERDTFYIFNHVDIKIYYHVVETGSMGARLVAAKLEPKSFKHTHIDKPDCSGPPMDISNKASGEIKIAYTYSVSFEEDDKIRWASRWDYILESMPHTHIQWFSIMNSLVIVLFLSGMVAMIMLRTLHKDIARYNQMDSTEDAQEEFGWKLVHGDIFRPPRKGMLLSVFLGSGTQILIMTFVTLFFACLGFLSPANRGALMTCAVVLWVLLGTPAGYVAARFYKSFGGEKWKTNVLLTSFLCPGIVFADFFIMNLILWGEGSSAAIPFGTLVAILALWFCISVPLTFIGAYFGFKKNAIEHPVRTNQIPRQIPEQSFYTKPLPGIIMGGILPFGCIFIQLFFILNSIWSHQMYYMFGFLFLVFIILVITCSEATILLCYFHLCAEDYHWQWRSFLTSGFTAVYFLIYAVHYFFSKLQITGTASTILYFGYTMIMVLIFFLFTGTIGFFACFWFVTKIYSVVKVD
UniProt Q86W42: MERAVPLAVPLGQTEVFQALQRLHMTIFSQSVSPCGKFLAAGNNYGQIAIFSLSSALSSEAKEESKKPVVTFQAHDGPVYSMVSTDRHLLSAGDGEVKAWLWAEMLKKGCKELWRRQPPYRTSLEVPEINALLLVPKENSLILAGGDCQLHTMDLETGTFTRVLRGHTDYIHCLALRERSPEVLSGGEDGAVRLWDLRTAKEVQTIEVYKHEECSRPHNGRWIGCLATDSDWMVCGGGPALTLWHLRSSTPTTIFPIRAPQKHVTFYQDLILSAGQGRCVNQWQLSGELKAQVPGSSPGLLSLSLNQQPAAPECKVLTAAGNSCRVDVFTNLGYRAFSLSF
UniProt Q9BYV8: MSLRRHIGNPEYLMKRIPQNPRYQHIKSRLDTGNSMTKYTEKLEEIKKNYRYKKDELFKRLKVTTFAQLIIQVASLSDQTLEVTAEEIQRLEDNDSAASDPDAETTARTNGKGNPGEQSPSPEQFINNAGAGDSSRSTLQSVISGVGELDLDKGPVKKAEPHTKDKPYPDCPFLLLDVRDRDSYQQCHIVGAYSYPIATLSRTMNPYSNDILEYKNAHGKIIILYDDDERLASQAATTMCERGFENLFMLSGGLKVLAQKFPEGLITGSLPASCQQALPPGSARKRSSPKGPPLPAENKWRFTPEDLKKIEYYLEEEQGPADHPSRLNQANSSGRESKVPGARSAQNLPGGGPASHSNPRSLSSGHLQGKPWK
UniProt Q96S44: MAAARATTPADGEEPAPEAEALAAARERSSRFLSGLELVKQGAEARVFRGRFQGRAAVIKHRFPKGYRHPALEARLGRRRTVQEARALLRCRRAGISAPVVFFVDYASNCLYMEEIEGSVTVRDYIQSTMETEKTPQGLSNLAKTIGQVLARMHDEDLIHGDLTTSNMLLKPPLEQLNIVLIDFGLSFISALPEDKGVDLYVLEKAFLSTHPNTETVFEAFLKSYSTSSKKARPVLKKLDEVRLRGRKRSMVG
UniProt Q96F44: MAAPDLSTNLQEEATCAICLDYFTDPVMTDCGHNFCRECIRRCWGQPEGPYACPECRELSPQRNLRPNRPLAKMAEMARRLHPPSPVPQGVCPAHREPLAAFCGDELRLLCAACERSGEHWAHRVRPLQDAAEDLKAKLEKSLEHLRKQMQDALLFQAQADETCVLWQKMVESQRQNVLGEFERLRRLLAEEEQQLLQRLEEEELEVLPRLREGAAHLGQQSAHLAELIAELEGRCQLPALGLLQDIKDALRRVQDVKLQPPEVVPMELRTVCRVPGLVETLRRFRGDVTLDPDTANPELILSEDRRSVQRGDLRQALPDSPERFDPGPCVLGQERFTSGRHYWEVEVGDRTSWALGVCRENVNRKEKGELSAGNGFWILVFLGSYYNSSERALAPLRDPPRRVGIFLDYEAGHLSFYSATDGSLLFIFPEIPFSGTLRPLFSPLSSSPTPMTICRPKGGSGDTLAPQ
UniProt Q15642: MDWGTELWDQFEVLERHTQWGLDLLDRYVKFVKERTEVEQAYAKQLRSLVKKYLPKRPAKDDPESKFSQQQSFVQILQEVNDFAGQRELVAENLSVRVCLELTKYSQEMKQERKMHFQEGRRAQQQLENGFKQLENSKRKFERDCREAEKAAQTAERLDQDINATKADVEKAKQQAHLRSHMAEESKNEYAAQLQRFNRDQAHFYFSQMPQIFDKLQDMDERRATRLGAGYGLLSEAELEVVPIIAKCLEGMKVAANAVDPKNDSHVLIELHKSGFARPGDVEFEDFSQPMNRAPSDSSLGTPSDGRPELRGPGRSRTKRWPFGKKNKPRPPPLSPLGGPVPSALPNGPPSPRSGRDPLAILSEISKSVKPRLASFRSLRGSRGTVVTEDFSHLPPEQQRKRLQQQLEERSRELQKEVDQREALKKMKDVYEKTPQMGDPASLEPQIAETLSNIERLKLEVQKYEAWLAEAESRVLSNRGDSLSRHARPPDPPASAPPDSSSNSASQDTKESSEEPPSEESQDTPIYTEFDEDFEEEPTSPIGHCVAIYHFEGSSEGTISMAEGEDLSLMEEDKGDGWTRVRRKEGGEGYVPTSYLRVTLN
UniProt Q6I9Y2: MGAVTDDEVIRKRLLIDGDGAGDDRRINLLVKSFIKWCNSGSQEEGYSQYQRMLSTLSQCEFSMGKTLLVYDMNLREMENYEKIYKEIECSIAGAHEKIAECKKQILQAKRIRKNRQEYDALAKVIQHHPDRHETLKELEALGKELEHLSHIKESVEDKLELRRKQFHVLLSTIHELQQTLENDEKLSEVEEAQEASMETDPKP
UniProt Q04727: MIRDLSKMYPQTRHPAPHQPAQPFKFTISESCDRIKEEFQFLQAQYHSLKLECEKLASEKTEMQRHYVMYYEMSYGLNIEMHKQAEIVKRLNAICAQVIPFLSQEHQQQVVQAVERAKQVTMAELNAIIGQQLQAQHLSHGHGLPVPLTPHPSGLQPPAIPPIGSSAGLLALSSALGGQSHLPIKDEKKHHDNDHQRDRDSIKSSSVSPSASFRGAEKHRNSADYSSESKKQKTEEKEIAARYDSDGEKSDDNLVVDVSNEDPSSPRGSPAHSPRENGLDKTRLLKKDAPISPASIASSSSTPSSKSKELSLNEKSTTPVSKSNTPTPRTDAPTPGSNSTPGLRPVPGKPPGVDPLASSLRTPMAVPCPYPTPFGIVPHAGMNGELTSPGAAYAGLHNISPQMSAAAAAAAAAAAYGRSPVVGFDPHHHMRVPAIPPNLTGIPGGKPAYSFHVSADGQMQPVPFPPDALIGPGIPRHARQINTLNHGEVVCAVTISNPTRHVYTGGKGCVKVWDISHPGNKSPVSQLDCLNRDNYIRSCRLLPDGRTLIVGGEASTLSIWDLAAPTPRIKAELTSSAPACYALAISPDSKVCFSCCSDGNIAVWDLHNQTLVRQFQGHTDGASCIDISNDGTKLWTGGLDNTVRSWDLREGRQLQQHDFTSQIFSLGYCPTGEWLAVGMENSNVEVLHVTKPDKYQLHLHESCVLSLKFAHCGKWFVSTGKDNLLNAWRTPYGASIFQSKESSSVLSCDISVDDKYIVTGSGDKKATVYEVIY
UniProt Q92574: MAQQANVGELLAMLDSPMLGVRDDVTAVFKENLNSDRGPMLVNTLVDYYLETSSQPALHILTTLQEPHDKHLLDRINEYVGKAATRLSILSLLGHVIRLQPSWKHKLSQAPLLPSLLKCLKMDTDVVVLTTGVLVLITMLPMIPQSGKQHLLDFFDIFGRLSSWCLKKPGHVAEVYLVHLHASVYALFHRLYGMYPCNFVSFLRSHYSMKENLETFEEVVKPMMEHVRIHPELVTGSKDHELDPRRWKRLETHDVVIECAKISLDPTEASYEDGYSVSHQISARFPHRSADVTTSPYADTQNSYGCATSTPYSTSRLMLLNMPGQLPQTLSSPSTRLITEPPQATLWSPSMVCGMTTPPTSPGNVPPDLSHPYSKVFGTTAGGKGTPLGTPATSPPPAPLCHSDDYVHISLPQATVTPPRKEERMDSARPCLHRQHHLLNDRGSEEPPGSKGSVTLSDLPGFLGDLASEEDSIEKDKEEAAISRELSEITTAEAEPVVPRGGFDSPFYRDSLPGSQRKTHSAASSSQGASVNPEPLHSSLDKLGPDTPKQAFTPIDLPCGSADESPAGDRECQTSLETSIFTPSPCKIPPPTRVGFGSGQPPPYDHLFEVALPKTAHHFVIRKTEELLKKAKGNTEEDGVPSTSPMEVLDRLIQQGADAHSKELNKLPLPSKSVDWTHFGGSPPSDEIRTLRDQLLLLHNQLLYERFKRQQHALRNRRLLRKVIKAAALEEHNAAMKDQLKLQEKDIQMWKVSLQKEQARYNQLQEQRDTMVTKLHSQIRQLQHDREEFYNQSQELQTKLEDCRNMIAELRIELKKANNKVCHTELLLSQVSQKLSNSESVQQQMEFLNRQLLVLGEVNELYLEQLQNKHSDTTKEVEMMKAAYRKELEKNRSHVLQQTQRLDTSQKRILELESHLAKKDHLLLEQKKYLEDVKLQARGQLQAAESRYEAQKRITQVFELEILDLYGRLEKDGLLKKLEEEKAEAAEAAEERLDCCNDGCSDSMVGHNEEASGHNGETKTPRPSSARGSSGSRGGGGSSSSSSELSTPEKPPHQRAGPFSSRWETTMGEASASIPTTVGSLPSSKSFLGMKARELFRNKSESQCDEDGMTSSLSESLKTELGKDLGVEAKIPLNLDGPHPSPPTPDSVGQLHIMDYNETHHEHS
UniProt Q9BTV4: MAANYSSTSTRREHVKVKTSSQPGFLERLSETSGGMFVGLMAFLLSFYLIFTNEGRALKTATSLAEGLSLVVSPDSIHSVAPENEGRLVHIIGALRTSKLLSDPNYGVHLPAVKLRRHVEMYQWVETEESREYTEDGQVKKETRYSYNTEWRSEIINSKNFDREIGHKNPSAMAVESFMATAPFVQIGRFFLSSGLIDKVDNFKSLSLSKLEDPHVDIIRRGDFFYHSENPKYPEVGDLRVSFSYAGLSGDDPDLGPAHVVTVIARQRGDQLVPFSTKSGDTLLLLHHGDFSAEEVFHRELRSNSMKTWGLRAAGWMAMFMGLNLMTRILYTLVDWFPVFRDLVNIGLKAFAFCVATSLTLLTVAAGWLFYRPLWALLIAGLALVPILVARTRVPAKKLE
UniProt Q9P016: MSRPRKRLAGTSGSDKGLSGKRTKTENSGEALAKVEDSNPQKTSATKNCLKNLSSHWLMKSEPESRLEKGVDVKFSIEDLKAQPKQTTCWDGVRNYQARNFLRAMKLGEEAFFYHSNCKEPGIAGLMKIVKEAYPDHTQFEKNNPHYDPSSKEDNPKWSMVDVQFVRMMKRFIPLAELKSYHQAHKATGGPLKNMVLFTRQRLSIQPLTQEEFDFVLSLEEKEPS

compound: COc1ccc(Cn2ccc3cc(C)c(C(=O)NO)cc32)cc1; assay: dose-dependent thermal stabilisation call (2D-TPP, DLPTP, 10% FDR) (binary (1 = stabilised)); higher = stabilised by the compound; conditions: system: HL-60 intact cells; concentration range 0.04-10 µM
Procedure: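 2D thermal proteome profiling in intact HL-60 cells treated with BRD-3811 (0, 0.04, 0.29, 2, 10 uM) for 90 min at 37 C, then heated 3 min at one of 12 temperatures (42-63.9 C). Soluble protein was quantified by TMT10 MS. The value is the DLPTP call of the paper: dose-dependent thermal stabilisation over all temperatures at 10% FDR (F-test of a dose-response against a flat model); one experiment, one call per tested protein.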

Target | dose-dependent thermal stabilisation call
THUMPD2 (UniProt Q9BTF0) | inactive: 0
TMEM97 (UniProt Q5BJF2) | inactive: 0
TRDMT1 (UniProt O14717) | inactive: 0
TOP3B (UniProt O95985) | inactive: 0
TRIM65 (UniProt Q6PJ69) | inactive: 0
TRRAP (UniProt Q9Y4A5) | inactive: 0
TKT (UniProt P29401) | inactive: 0
TM9SF2 (UniProt Q99805) | inactive: 0
TIMELESS (UniProt Q9UNS1) | inactive: 0
TNFAIP3 (UniProt P21580) | inactive: 0
THOC6 (UniProt Q86W42) | inactive: 0
TSGA14 (UniProt Q9BYV8) | inactive: 0
TJAP1 (UniProt Q5JTD0) | inactive: 0
TLK1 (UniProt Q9UKI8) | inactive: 0
TP53RK (UniProt Q96S44) | inactive: 0
TRIM11 (UniProt Q96F44) | inactive: 0
TRIP10 (UniProt Q15642) | inactive: 0
TMEM175 (UniProt Q9BSA9) | inactive: 0

Target | dose-dependent thermal stabilisation call
THOC7 (UniProt Q6I9Y2) | inactive: 0
TNPO2 (UniProt O14787) | inactive: 0
TTC1 (UniProt Q99614) | inactive: 0
TOMM20 (UniProt Q15388) | inactive: 0
TLE4 (UniProt Q04727) | inactive: 0
TNFAIP8L2 (UniProt Q6P589) | inactive: 0
TNFRSF10D (UniProt Q9UBN6) | inactive: 0
TSC1 (UniProt Q92574) | inactive: 0
TMCO3 (UniProt Q6UWJ1) | inactive: 0
TNPO3 (UniProt Q9Y5L0) | inactive: 0
TRMT2B (UniProt Q96GJ1) | inactive: 0
TMEM192 (UniProt Q8IY95) | inactive: 0
TRIT1 (UniProt Q9H3H1) | inactive: 0
TMSL3 | inactive: 0
TMEM43 (UniProt Q9BTV4) | inactive: 0
THYN1 (UniProt Q9P016) | inactive: 0
THOC1 (UniProt Q96FV9) | inactive: 0
TIPIN (UniProt Q9BVW5) | inactive: 0

A few values from above:
dose-dependent thermal stabilisation call with THOC7 (UniProt Q6I9Y2) reads inactive: 0
dose-dependent thermal stabilisation call with TSC1 (UniProt Q92574) reads inactive: 0
